Experimental data: PubChem BioAssay AID504795 (Drosophila RNAi Screening Center, 2011)
This is not the whole library: the list holds selected reagents. 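Every listed dsRNA shows some phenotype; how reagents were selected for listing is not stated.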 A plus sign joins genes that one reagent is predicted to hit.

- Test: 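Fly genes whose loss alters neurite growth or neural cell form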 (primary screen)
- Cells: primary Drosophila neurons and glia
- Knock-down reagent: long dsRNA against Drosophila genes, 250 ng dsRNA per well
- Duration: one week
- Read-out: 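GFP-labelled neurons and glia imaged live by automated microscope one week after 250 ng dsRNA per well; morphology scored by eye as descriptive phenotype terms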

| gene | dsRNA | phenotype seen, replicate 1 | phenotype seen, replicate 2 |
| --- | --- | --- | --- |
| CG18540 | DRSC06767 | axon bundles split apart | – |
| nxf4 | DRSC12548 | axon bundles split apart | – |
| CG3961 | DRSC10391 | abnormal cell clusters | – |
| NaPi-T | DRSC07476 | axon bundles split apart | – |
| CG11149 | DRSC02130 | cell fragments present | – |
| ClC-b | DRSC07220 | axon bundles split apart | – |
| t-cup | DRSC01254 | axon bundles split apart | – |
| CG12828 | DRSC06177 | abnormal cell clusters | – |
| gce | DRSC19974 | beaded; swollen axons | – |
| eIF3a | DRSC12339 | reduced axon outgrowth | – |
| Jon25Bii | DRSC03114 | beaded; swollen axons | – |
| Bmcp | DRSC10808 | axon bundles split apart | – |
| CG30265 | DRSC21592 | axon bundles split apart | – |
| CG40498 | DRSC07786 | axon bundles split apart | – |
| Eip63F-1 | DRSC08659 | too many neurite branches | – |
| l(2)03659 | DRSC07269 | axon bundles split apart | – |
| FeCH | DRSC16948 | too many neurite branches | – |
| CG6220 | DRSC06969 | axon bundles split apart | – |
| 5-HT1B | DRSC05769 | too many neurite branches | – |
| Cpr49Af | DRSC07202 | abnormal cell clusters | – |
| Cyp6a23 | DRSC07383 | axon bundles split apart | – |
| RpL23A | DRSC08694 | too many neurite branches | – |
| eIF4E7 | DRSC17782 | sheet-like cell extensions | – |
| CG13130 (retired record) | DRSC02226 | too many neurite branches | – |
| Ten-a | DRSC19496 | axon bundles split apart | – |
| Ten-a | DRSC19700 | too many neurite branches | – |
| Edem2 | DRSC02877 | sheet-like cell extensions | – |
| CG15365 | DRSC18038 | cell fragments present | – |
| ppk31 | DRSC13811 | too many neurite branches | – |

Part of the list above, set out differently.
CG6220 [DRSC06969]: phenotype seen, replicate 1 = axon bundles split apart
5-HT1B [DRSC05769]: phenotype seen, replicate 1 = too many neurite branches
Cpr49Af [DRSC07202]: phenotype seen, replicate 1 = abnormal cell clusters
Cyp6a23 [DRSC07383]: phenotype seen, replicate 1 = axon bundles split apart
RpL23A [DRSC08694]: phenotype seen, replicate 1 = too many neurite branches
eIF4E7 [DRSC17782]: phenotype seen, replicate 1 = sheet-like cell extensions
CG13130 (retired record) [DRSC02226]: phenotype seen, replicate 1 = too many neurite branches
Ten-a [DRSC19496]: phenotype seen, replicate 1 = axon bundles split apart
Ten-a [DRSC19700]: phenotype seen, replicate 1 = too many neurite branches
Edem2 [DRSC02877]: phenotype seen, replicate 1 = sheet-like cell extensions

More results follow:
| gene | dsRNA | phenotype seen, replicate 1 | phenotype seen, replicate 2 |
| --- | --- | --- | --- |
| ZnT77C | DRSC11766 | axon bundles split apart | – |
| CG10300 | DRSC14225 | too many neurite branches | – |
| CG44001 + CG33995 | DRSC00853 | abnormal cell clusters | – |
| CG44001 + CG33995 | DRSC02898 | axon bundles split apart | – |
| mtd | DRSC12380 | axon bundles split apart | – |
| CG8765 | DRSC11041 | too many neurite branches | abnormal cell clusters |
| Or67c | DRSC11242 | too many neurite branches | – |
| Eip63E | DRSC08658 | abnormal cell clusters | – |
| CG4768 | DRSC19917 | axon bundles split apart | – |
| ND-49 | DRSC17151 | sheet-like cell extensions | – |
| sm | DRSC05795 | axon bundles split apart | – |
| Ir31a | DRSC22358 | axon bundles split apart | – |
| CG3600 (retired record) | DRSC18599 | too many neurite branches | – |
| Atxn7 | DRSC00726 | abnormal cell clusters | – |
| RpL38 | DRSC07818 | weaker green signal | – |
| CG10543 | DRSC04081 | axon bundles split apart | – |
| CG42319 | DRSC06645 | beaded; swollen axons | – |
| CG10194 | DRSC02025 | axon bundles split apart | – |
| CG3982 | DRSC10394 | sheet-like cell extensions | – |
| CG15219 | DRSC03715 | reduced axon outgrowth | – |
| Vps39 | DRSC16205 | axon bundles split apart | – |
| Xrp1 | DRSC15283 | cell fragments present | – |
| PAN3 | DRSC08190 | too many neurite branches | – |
| AANATL2 | DRSC03227 | too many neurite branches | – |
| rg | DRSC18049 | too many neurite branches | – |
| Eig71Eg | DRSC11154 | too many neurite branches | – |
| CG12590 | DRSC12216 | abnormal cell clusters | – |
| CG32409 | DRSC08780 | sheet-like cell extensions | – |
| CG32694 | DRSC17855 | axon bundles split apart | – |
| CG33958 | DRSC06944 | sheet-like cell extensions | – |
| CG7208 | DRSC16212 | axon bundles split apart | – |
| e(y)2 | DRSC19640 | abnormal cell clusters | – |
| Grx3 | DRSC02966 | axon bundles split apart | – |
| CG13907 | DRSC08377 | axon bundles split apart | – |
| CG42673 | DRSC08991 | too many neurite branches | – |
| CG42673 | DRSC10353 | too many neurite branches | – |
| CkIIalpha-i1 | DRSC11115 | abnormal cell clusters | – |
| Mdr50 | DRSC07467 | fewer cells | – |
| CG13838 | DRSC14688 | too many neurite branches | – |
| RpL18 | DRSC11016 | axon bundles split apart | – |
| RpL18 | DRSC22323 | axon bundles split apart | – |
| Psn | DRSC11743 | abnormal cell clusters | – |
| CG33964 + CG13175 | DRSC06300 | abnormal cell clusters | – |
| Nadk1a | DRSC05431 | axon bundles split apart | – |
| CG43078 | DRSC21541 | axon bundles split apart | – |
| CG43078 | DRSC22327 | abnormal cell clusters | – |
